Values quoted from earlier work, collected in patent publication US20050008712A1, “Compositions incorporating high-caffeine green tea extract and related methods for promoting healthy body weight” (priority 2003, published 2005).
For at least one compound, name, drawing or mass did not settle the structure.

Details: caffeine in amounts equivalent to those naturally occurring in the green tea extract

Cn1c(=O)c2c(ncn2C)n(C)c1=O [caffeine, trimethylxanthine]
effect on the measured factors (24-hour Energy Expenditure, Respiratory Quotient, urinary nitrogen, urinary norepinephrine): no significant effect
